# Assay results as given in the supplement of paper PMC8728848.
# This is one part of the list.
# B1: PX14379D-pdi-530-26-530 (Parabacteroides distasonis) (protein)
# chain: DETVYDKLPADDFGQSTAELNALIGNSHNTMKKFWTEYMHLSECSGSMAVTPTRRGGDWYDGGQYREIYMHTWTSQTSRVKSAWKAATEAIGTCNEAIRKLQNSEILTEEEKAQDVADLRGVRAFWIYVMMDYWGNIPLLTEFHPTDKVFPGNSSRQEVFDWLIQEVEEIKDICPPATTENYGSFTQGAAYSLLAKLYLNAEAWGVTFSGNAYQKVIDNCDKVMAMGYILEPNWKDNFSVTNENSKEAILAATFSSSDTGNDGNVKNELHNNTLHYKDYLSLGITASGTWNGICAQPEYVRLFDEEDARLDGTFLTGLMIDKSTGKPIMTDHNNELNHTIDVNMIPGMEYDGTNWSAVEQHDGARCFKWEFASDLTSSMGNDFHIFRLADIYLMKAEALLRGGGSVSEATALVNTIRERGYGNSDHNYATVTLKEVQLERRLELAWEVYSRQDDIRFGCFTTGMWPQSNCERKADDYLKLLPVSQDAWQVNPNLKQNPGYAAFSK
# How the values were obtained:
# Assay in all cases: glycan array binding signal (z-score within array); higher = stronger binding
# Details in all cases: glycan notation: IUPAC condensed, linker removed
# [1] = biological target: Gal(b1-3)GlcNAc(b1-2)Man(a1-3)[Gal(b1-3)GlcNAc(b1-2)Man(a1-6)]Man(b1-4)GlcNAc(b1-4)[Fuc(a1-6)]GlcNAc
# Outline: (§1)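 The binding signal is a Z-score computed within each array. Data were drawn from 3228 arrays in the Consortium for Functional Glycomics database, restricted to those with a known protein sequence. Scores were averaged over arrays of the same protein sequence at different concentrations or buffers, and over linkers, and negative values can be taken as non-binding.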
# [2] = biological target: Gal(b1-3)GlcNAc(b1-2)Man(a1-3)[GlcNAc(b1-4)][Gal(b1-3)GlcNAc(b1-2)Man(a1-6)]Man(b1-4)GlcNAc(b1-4)GlcNAc
# Outline: as §1
# [3] = biological target: Gal(b1-3)GlcNAc(b1-2)[Gal(b1-3)GlcNAc(b1-6)]Man(a1-6)[Gal(b1-3)GlcNAc(b1-2)Man(a1-3)]Man(b1-4)GlcNAc(b1-4)GlcNAc
# Outline: as §1
# [4] = biological target: Gal(b1-3)GlcNAc(b1-3)Gal(b1-3)GlcNAc
# Outline: as §1
# [5] = biological target: Gal(b1-3)GlcNAc(b1-3)Gal(b1-4)Glc
# Outline: as §1
# [6] = biological target: Gal(b1-3)GlcNAc(b1-3)Gal(b1-4)GlcNAc
# Outline: as §1
# [7] = biological target: Gal(b1-3)GlcNAc(b1-3)Gal(b1-4)GlcNAc(b1-2)Man(a1-3)[Gal(b1-3)GlcNAc(b1-3)Gal(b1-4)GlcNAc(b1-2)Man(a1-6)]Man(b1-4)GlcNAc(b1-4)GlcNAc
# Outline: as §1
# [8] = biological target: Gal(b1-3)GlcNAc(b1-3)Gal(b1-4)GlcNAc(b1-2)[Gal(b1-3)GlcNAc(b1-3)Gal(b1-4)GlcNAc(b1-6)]Man(a1-6)[Gal(b1-3)GlcNAc(b1-3)Gal(b1-4)GlcNAc(b1-2)Man(a1-3)]Man(b1-4)GlcNAc(b1-4)[Fuc(a1-6)]GlcNAc
# Outline: as §1
# [9] = biological target: Gal(b1-3)GlcNAc(b1-3)Gal(b1-4)GlcNAc(b1-3)Gal(b1-4)GlcNAc(b1-2)[Gal(b1-3)GlcNAc(b1-3)Gal(b1-4)GlcNAc(b1-3)Gal(b1-4)GlcNAc(b1-6)]Man(a1-6)[Gal(b1-3)GlcNAc(b1-3)Gal(b1-4)GlcNAc(b1-3)Gal(b1-4)GlcNAc(b1-2)Man(a1-3)]Man(b1-4)GlcNAc(b1-4)[Fuc(a1-6)]GlcNAc
# Outline: as §1
# [10] = biological target: Gal(b1-3)GlcNAc(b1-3)Gal(b1-4)GlcNAc(b1-6)[Gal(b1-3)GlcNAc(b1-3)]Gal(b1-4)Glc
# Outline: as §1
# [11] = biological target: Gal(b1-3)GlcNAc(b1-3)Gal(b1-4)[Fuc(a1-3)]GlcNAc
# Outline: as §1
# [12] = biological target: Gal(b1-3)GlcNAc(b1-3)Gal(b1-4)[Fuc(a1-3)]GlcNAc(b1-6)[Gal(b1-3)GlcNAc(b1-3)]Gal(b1-4)Glc
# Outline: as §1
# [13] = biological target: Gal(b1-3)GlcNAc(b1-3)GalNAc
# Outline: as §1
# [14] = biological target: Gal(b1-3)GlcNAc(b1-6)Gal(b1-4)GlcNAc
# Outline: as §1
# [15] = biological target: Gal(b1-3)GlcNAc(b1-6)GalNAc
# Outline: as §1
# [16] = biological target: Gal(b1-3)GlcNAc(b1-6)[Gal(b1-3)]GalNAc
# Outline: as §1
# Gal(b1-3)GlcNAc6S = biological target: Gal(b1-3)GlcNAc6S
# Outline: as §1
# [17] = biological target: Gal(b1-3)[Fuc(a1-4)]GlcNAc
# Outline: as §1
# [18] = biological target: Gal(b1-3)[Fuc(a1-4)]GlcNAc(b1-2)Man
# Outline: as §1
# [19] = biological target: Gal(b1-3)[Fuc(a1-4)]GlcNAc(b1-2)Man(a1-3)[Gal(b1-3)[Fuc(a1-4)]GlcNAc(b1-2)Man(a1-6)]Man(b1-4)GlcNAc(b1-4)[Fuc(a1-6)]GlcNAc
# Outline: as §1
# [20] = biological target: Gal(b1-3)[Fuc(a1-4)]GlcNAc(b1-3)Gal(b1-3)[Fuc(a1-4)]GlcNAc
# Outline: as §1
# [21] = biological target: Gal(b1-3)[Fuc(a1-4)]GlcNAc(b1-3)Gal(b1-4)[Fuc(a1-3)]GlcNAc
# Outline: as §1
# [22] = biological target: Gal(b1-3)[Fuc(a1-4)]GlcNAc(b1-6)GalNAc
# Outline: as §1
# [23] = biological target: Gal(b1-3)[GlcNAc(b1-6)]GalNAc
# Outline: as §1
# [24] = biological target: Gal(b1-3)[Neu5Ac(a2-6)]GalNAc
# Outline: as §1
# [25] = biological target: Gal(b1-3)[Neu5Ac(a2-6)]GlcNAc(b1-4)Gal(b1-4)Glc
# Outline: as §1
# [26] = biological target: Gal(b1-3)[Neu5Ac(b2-6)]GalNAc
# Outline: as §1
# Gal(b1-4)Gal = biological target: Gal(b1-4)Gal
# Outline: as §1
# [27] = biological target: Gal(b1-4)GalNAc(a1-3)[Fuc(a1-2)]Gal(b1-4)GlcNAc
# Outline: as §1
# [28] = biological target: Gal(b1-4)GalNAc(b1-3)[Fuc(a1-2)]Gal(b1-4)GlcNAc
# Outline: as §1
# Gal(b1-4)Glc = biological target: Gal(b1-4)Glc
# Outline: as §1
# Gal(b1-4)Glc6S = biological target: Gal(b1-4)Glc6S
# Outline: as §1
# Gal(b1-4)GlcNAc = biological target: Gal(b1-4)GlcNAc
# Outline: as §1
# [29] = biological target: Gal(b1-4)GlcNAc(a1-6)Gal(b1-4)GlcNAc
# Outline: as §1
# Gal(b1-4)GlcNAc(b1-2)Man = biological target: Gal(b1-4)GlcNAc(b1-2)Man
# Outline: as §1
# [30] = biological target: Gal(b1-4)GlcNAc(b1-2)Man(a1-3)Man(b1-4)GlcNAc(b1-4)GlcNAc
# Outline: as §1
# [31] = biological target: Gal(b1-4)GlcNAc(b1-2)Man(a1-3)[Gal(b1-4)GlcNAc(b1-2)Man(a1-6)]Man(b1-4)GlcNAc(b1-4)GlcNAc
# Outline: as §1
binder,measurement,setting,value
B1,glycan array binding signal (z-score),[1],0.577
same,glycan array binding signal (z-score),[2],0.644
same,glycan array binding signal (z-score),[3],-0.706
same,glycan array binding signal (z-score),[4],-0.766
same,glycan array binding signal (z-score),[5],-0.552
same,glycan array binding signal (z-score),[6],-0.777
same,glycan array binding signal (z-score),[7],0.63
same,glycan array binding signal (z-score),[8],1.7
same,glycan array binding signal (z-score),[9],0.912
same,glycan array binding signal (z-score),[10],0.395
same,glycan array binding signal (z-score),[11],-0.369
same,glycan array binding signal (z-score),[12],-0.784
same,glycan array binding signal (z-score),[13],-0.25
same,glycan array binding signal (z-score),[14],-1.22
same,glycan array binding signal (z-score),[15],-0.974
same,glycan array binding signal (z-score),[16],-1.1
same,glycan array binding signal (z-score),Gal(b1-3)GlcNAc6S,0.905
same,glycan array binding signal (z-score),[17],-0.849
same,glycan array binding signal (z-score),[18],-1.24
same,glycan array binding signal (z-score),[19],0.415
same,glycan array binding signal (z-score),[20],-0.536
same,glycan array binding signal (z-score),[21],-0.252
same,glycan array binding signal (z-score),[22],-0.682
same,glycan array binding signal (z-score),[23],-0.163
same,glycan array binding signal (z-score),[24],-0.548
same,glycan array binding signal (z-score),[25],0.468
same,glycan array binding signal (z-score),[26],-1.06
same,glycan array binding signal (z-score),Gal(b1-4)Gal,-0.309
same,glycan array binding signal (z-score),[27],-0.252
same,glycan array binding signal (z-score),[28],-0.422
same,glycan array binding signal (z-score),Gal(b1-4)Glc,-0.567
same,glycan array binding signal (z-score),Gal(b1-4)Glc6S,-0.07
same,glycan array binding signal (z-score),Gal(b1-4)GlcNAc,-0.702
same,glycan array binding signal (z-score),[29],-0.555
same,glycan array binding signal (z-score),Gal(b1-4)GlcNAc(b1-2)Man,0.169
same,glycan array binding signal (z-score),[30],0.674
same,glycan array binding signal (z-score),[31],-0.165

# Eight successive entries already listed:
binder,measurement,setting,value
B1,glycan array binding signal (z-score),[11],-0.369
same,glycan array binding signal (z-score),[12],-0.784
same,glycan array binding signal (z-score),[13],-0.25
same,glycan array binding signal (z-score),[14],-1.22
same,glycan array binding signal (z-score),[15],-0.974
same,glycan array binding signal (z-score),[16],-1.1
same,glycan array binding signal (z-score),Gal(b1-3)GlcNAc6S,0.905
same,glycan array binding signal (z-score),[17],-0.849
